Experimental data as given in PubChem BioAssay AID2487 (National Center for Advancing Translational Sciences (NCATS), 2010).
Inconclusive results, whose numbers are uncertain, are shown with a selection of clear calls. A potency beside an inconclusive call is a rough fit, not a confirmed value. Activity calls are given as the source filed them. No rule for the calls is given here.

Sequences of proteins named here, by UniProt entry; tags and fusion partners are left off.
UniProt P10828, whole entry, looked up: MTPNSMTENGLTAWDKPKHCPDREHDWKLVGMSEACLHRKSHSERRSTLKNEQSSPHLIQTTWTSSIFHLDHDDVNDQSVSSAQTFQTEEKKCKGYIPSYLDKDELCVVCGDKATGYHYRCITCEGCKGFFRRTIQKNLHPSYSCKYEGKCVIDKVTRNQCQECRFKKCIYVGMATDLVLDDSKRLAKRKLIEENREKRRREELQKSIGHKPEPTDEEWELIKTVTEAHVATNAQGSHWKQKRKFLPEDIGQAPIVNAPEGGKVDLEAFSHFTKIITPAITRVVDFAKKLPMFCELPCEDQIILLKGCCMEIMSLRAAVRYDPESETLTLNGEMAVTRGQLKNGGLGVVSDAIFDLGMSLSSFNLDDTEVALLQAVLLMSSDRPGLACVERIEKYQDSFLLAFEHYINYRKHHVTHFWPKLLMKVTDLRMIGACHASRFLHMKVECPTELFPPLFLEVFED

molecular target: Thyroid hormone receptor beta (Homo sapiens) (UniProt P10828); experiment: Secondary Confirmation Assay for Inhibitors of the Interaction of Thyroid Hormone Receptor and Steroid Receptor Coregulator 2, Fluorescein Fluoroprobe; conditions: TRb LBD / fluorescein-SRC2 peptide, fluorescence polarization
Excerpt: NIH Molecular Libraries Probe Production Network [MLPCN] NIH Chemical Genomics Center [NCGC] MLPCN Grant: DK058080 Assay Provider: R. Kip Guy, St. Jude Children's Research Hospital NCGC Assay Overview: Thyroid receptor (TR) regulates many homeostatic processes including basal metabolism, cardiovascular function, body weight, and lipid trafficking. TR modulators are potential therapeutics for obesity and hyperlipidemias but current thyroid analogs have undesirable side effects, particularly cardiac stimulation. To identify inhibitors that specifically prevent the interaction of TR with the steroid receptor coregulator 2 (SRC2), a fluorescence polarization assay was screened (Arnold et al., 2006). This assay detects interaction of the ligand-binding domain of human TRb with a fluorescein labeled SRC2 peptide, corresponding to a 20 amino acid region of the nuclear receptor interaction domain. Small molecule inhibitors that block the interaction of TR and SRC2 are detected by a decrease in fluorescence polarization.
NCGC Assay Protocol Summary: Twenty uL/well 0.6 uM TRb and 20 nM fluorescein labeled SRC2-2 in protein buffer (20mM Tris hydrochloride, pH 7.4, 100mM NaCl, 10% glycerol, 1mM EDTA, 0.01% NP-40, 1mM DTT, 1uM T3 and 4% DMSO) was dispensed into black solid 384-well plates (Costar 3710) using a Biomek FX (Beckman Coulter) liquid handling system. Following transfer of 260 nL compound (ranging from 7 nM to 130 uM), the plates were incubated 3 hr at ambient temperature. The plates were read by an Envision (Perkin Elmer) to detect fluorescence polarization of SRC2 Fluorescein (480 nm excitation and 535 nm emission). Arnold, L. A.; Estebanez-Perpina, E.; Togashi, M.; Shelat, A.; Ocasio, C. A.; McReynolds, A. C.; Nguyen, P.; Baxter, J. D.; Fletterick, R. J.; Webb, P.; Guy, R. K. A high-throughput screening method to identify small molecule inhibitors of thyroid hormone receptor coactivator binding. Sci STKE 2006, p 13.

With `COc1cccc(CNC(=O)COC(=O)c2ccc(S(C)(=O)=O)c([N+](=O)[O-])c2)c1` as the compound, how does the outcome read?
Its outcome is “inactive”.

How did the Potency turn out when `Cn1cccc1C(=O)NC(=O)COC(=O)c1ccc(S(C)(=O)=O)c([N+](=O)[O-])c1` was run?
The Potency was inconclusive: 73.7 µM.

For `CC(=O)c1cccc(NC(=O)C(C)OC(=O)c2ccc(S(C)(=O)=O)c([N+](=O)[O-])c2)c1` (centres undefined), which Potency is on record?
Its Potency is active: 61.9 µM.

How did the Potency turn out when `CC(=O)c1cccc(NC(=O)COC(=O)c2ccc(S(C)(=O)=O)c([N+](=O)[O-])c2)c1` was run?
The Potency was inconclusive: 76.8 µM.
